Out of some 330,000 compounds screened, about 7,700 (2.3%) were called active. This list was built around the results that the source calls inconclusive (neither active nor inactive); the mix of calls is not that of the screen. Calls come from the whole dose curve; as a rule, active = well fitted inhibition curve with a large enough effect; inconclusive = small, poorly fitted or top-dose-only effect, or effect the other way; inactive = flat fitted curve, though single readings scatter. Where the call is inconclusive, the potency comes from a doubtful curve fit.
Test: qHTS screen for small molecules that inhibit ELG1-dependent DNA repair in human embryonic kidney (HEK293T) cells expressing luciferase-tagged ELG1; note: nearly all actives have a fitted effect of over 55% in size
Details: HEK293T ELG1-luciferase reporter, luminescence, 16 h, DNA damage induced by 5-fluorouridine; activity change, negative = inhibition: at 46.1 µM (top of the series)
In short: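 Quantitative HTS, concentration-response format. 2,000 cells/well co-treated with 5-fluorouridine and compound, 16 hr in 5% CO2 at 37 °C; ONE-Glo luminescence read after 30 min.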
% is set by controls: 0 for no effect and ±100 for the full control effect; potency is the fitted concentration of half-maximal effect.

Compound | activity change, negative = inhibition | Potency
Cc1ccc(-c2nc(=S)c3c(n2Cc2ccco2)CC(C)(C)OC3)cc1 | inactive: 4.86% | 
CC(OC(=O)c1cccnc1Cl)C(=O)Nc1ccc2c(c1)OCCO2 (stereo unspecified) |  | inconclusive: 29.1 µM [inhibitor, single point]
CCn1c(C)c(C)c2cc(C(=O)N3CCc4ccccc4C3)ccc21 |  | inconclusive: 14.6 µM [inhibitor, partial curve, poor fit]
CCCCn1nc2cc(C(=O)NC3CCCc4ccccc43)ccc2c1OCC (stereo unspecified) |  | inconclusive: 18.4 µM [inhibitor, single point]
NCCCC[C@H]1CNC(=S)N1CCCCC1CCCCC1 | inactive: -5.13% | 
COc1cccc(NC(=O)COC(=O)c2cc(=O)c3ccccc3o2)c1 |  | inconclusive: 9.2 µM [activator, partial curve, poor fit]
COc1ccc(C(=S)N2CCOCC2)cc1OC(=O)c1cccc([N+](=O)[O-])c1 |  | inconclusive: 23.1 µM [inhibitor, partial curve, poor fit]
COc1ccc(CC(=O)Nc2ccc(-c3cn4ccccc4n3)cc2)cc1 |  | inconclusive: 6.51 µM [activator, partial curve]
Cc1ccc(S(=O)(=O)CCC(=O)Nc2nnc(-c3cccs3)o2)cc1 | inactive: 14.7% | 
O=C(N/N=C/c1cc([N+](=O)[O-])ccc1O)c1cccc2cc[nH]c12 |  | active: 4.61 µM
O=C(c1ccccc1)c1ccc(Sc2ccc([N+](=O)[O-])cc2)cc1 |  | active: 11.6 µM
Cc1cc(=O)[nH]c(SCC(=O)Nc2ccc3c(c2)CCC3)c1C#N |  | inconclusive: 17.8 µM [activator, partial curve, poor fit]
O=C(c1cccc(F)c1)N1CCN(C(=O)c2cc(-c3ccc(Cl)cc3Cl)on2)CC1 |  | inconclusive: 16.4 µM [inhibitor, single point]
CCOc1ccc(N2C(=O)C3C(c4ccc(OC)cc4OC)NC(CCSC)(C(=O)OC)C3C2=O)cc1 (stereo unspecified) |  | inconclusive: 4.11 µM [inhibitor, single point]
Cc1cc(-c2ccccc2)c2ccc(NC(=O)C(C)(C)C)nc2n1 |  | inconclusive: 35.5 µM [inhibitor, single point]
O=C(NCc1ccccc1)NC1CCCCC1 |  | inconclusive: 18.4 µM [activator, partial curve]
CN1CCN(C(=O)Nc2ccc([N+](=O)[O-])cc2)CC1 | inactive: -11.1% | 
CC(=O)c1ccc(NC(=S)N2CCCC2)cc1 |  | inconclusive: 13 µM [activator, partial curve]
COc1ccc2c(c1OC)C(=O)OC2Nc1nc(-c2cccc([N+](=O)[O-])c2)cs1 (stereo unspecified) |  | inconclusive: 25.9 µM [activator, single point]
CC1CC(C)CN(C(=O)C2CCN(S(=O)(=O)c3cccs3)CC2)C1 (stereo unspecified) | inactive: 7.63% | 
O=C(NCCCN1CCCC1=O)c1ccc(NS(=O)(=O)c2cccc([N+](=O)[O-])c2)cc1 | inactive: -2.23% | 
Cc1ccc(-c2csc3ncnc(N4CCN(S(=O)(=O)c5cccs5)CC4)c23)cc1 |  | inconclusive: 6.51 µM [inhibitor, full curve]
Cc1onc(-c2ccc(Cl)cc2)c1-c1ccnc(SCC(=O)Nc2ccc(C(C)C)cc2)n1 |  | inconclusive: 23.1 µM [inhibitor, single point]
COc1ccc(N2CCN(S(=O)(=O)CCNC(=O)COc3ccccc3C)CC2)cc1 |  | inconclusive: 5.8 µM [inhibitor, single point]

Compound | activity change, negative = inhibition | Potency
O=C(COC(=O)CNC(=O)c1ccccc1F)Nc1ncc(Cl)cc1Cl | inactive: -0.239% | 
CN(CC(=O)Nc1cccc(F)c1)C(=O)c1cccnc1Sc1ccccc1Cl |  | inconclusive: 23.1 µM [activator, single point]
CSc1ccc(CCNC(=O)CN2C(=O)CCSc3ccccc32)cc1 | inactive: -3.29% | 
O=C(O)c1ccccc1Nc1cccc(C(F)(F)F)c1 | inactive: -3.25% | 
Cc1[nH]c2ccc(C(=O)N3CCN(c4cccc(Cl)c4)CC3)cc2c1C | inactive: 2.57% | 
Cn1ncc2c(Nc3ccc(Br)cc3)nc(Nc3ccc(Br)cc3)nc21 |  | active: 23.1 µM
O=C(N/N=C/c1ccncc1)c1cc(C2CC2)nc2ccccc12 | inactive: 13.3% | 
Nn1c(-c2ccccc2Cl)nnc1-c1ccccc1Cl |  | inconclusive: 20.6 µM [activator, partial curve]
CO/N=C(\c1nonc1N)N1CCN(c2ccc([N+](=O)[O-])cc2Cl)CC1 |  | inconclusive: 16.4 µM [inhibitor, single point]
CCN(CC)CCOC(c1ccccc1)c1ccc(C)cc1 (stereo unspecified) | inactive: -19.3% | 
N#Cc1ccc(OCC(=O)NC2=NCCS2)cc1 | inactive: 24.6% | 
Cc1ccc(CNC(=O)Cc2cccs2)cc1 |  | inconclusive: 16.4 µM [activator, single point]
Cc1nn(Cc2ccccc2Cl)c2sc(C(=O)NCCCn3ccnc3)cc12 |  | inconclusive: 29.1 µM [inhibitor, single point]
CC1CCc2sc(C(=O)NCc3ccc(F)cc3)cc2C1 (stereo unspecified) |  | inconclusive: 23.1 µM [activator, partial curve, poor fit]
O=C(O)CCCn1cc(NC(=O)c2sc3ccccc3c2Cl)cn1 | inactive: 18.8% | 
CC(C)(C)C(=O)Nc1nnc(Cc2ccccc2)s1 |  | inconclusive: 14.6 µM [activator, single point]
O=C(CSc1nc(O)c(C2CCCCC2)c(=O)[nH]1)NCC1CCCO1 (stereo unspecified) |  | inconclusive: 32.6 µM [activator, single point]
O=C(Nc1ccccc1N1CCOCC1)C1CCN(S(=O)(=O)c2ccccc2F)CC1 | inactive: -5.72% | 
Cc1ccc(C(=O)C2(C)C3c4cc(Br)ccc4OC(=O)C32C(=O)c2ccco2)cc1 (stereo unspecified) | inactive: 0.931% | 
COc1ccc(OC)c(CCNC(=O)CS(=O)(=O)Cc2nc(-c3ccccc3Cl)oc2C)c1 |  | active: 20.6 µM
O=C(NNc1nc(-c2ccccc2)cs1)c1cccs1 | inactive: 17% | 
S=c1[nH]nc(/C=C/c2ccccc2)o1 |  | inconclusive: 13 µM [activator, single point]
CCOc1ccc(N(CC(N)=O)S(=O)(=O)c2ccc(F)cc2)cc1 |  | inconclusive: 1.16 µM [activator, single point]
CC(=O)c1ccc(NC(=O)c2ccn[nH]2)cc1 |  | inconclusive: 8.2 µM [activator, partial curve]

Of the compounds above, these contain a cyano group:
Compound | activity change, negative = inhibition | Potency
Cc1cc(=O)[nH]c(SCC(=O)Nc2ccc3c(c2)CCC3)c1C#N |  | inconclusive: 17.8 µM [activator, partial curve, poor fit]
N#Cc1ccc(OCC(=O)NC2=NCCS2)cc1 | inactive: 24.6% | 

Later entries

Compound | activity change, negative = inhibition | Potency
COc1ccc(Br)cc1CN(C)C(=O)Cc1ccc(S(=O)(=O)N2CCOCC2)s1 | inactive: -27.6% | 
O=c1oc(C2(O)CCCCC2)cc2ccc(-c3ccc4[nH]ccc4c3)cc12 |  | inconclusive: 5.8 µM [activator, partial curve]
CCOC(=O)C1(CC2CC2)CCN(Cc2cn[nH]c2-c2cccc(F)c2)CC1 | inactive: -8.98% | 
CSc1nc(N)n2nc(-c3ccc(Cl)cc3)cc2n1 |  | inconclusive: 8.2 µM [activator, partial curve]
Cc1ccc(C(=O)N/C(=C\c2ccc(-c3cccc([N+](=O)[O-])c3)o2)C(=O)NC(C)(C)C)cc1 |  | inconclusive: 14.6 µM [inhibitor, partial curve, poor fit]
COc1ccc(CNC(=O)[C@H](Cc2ccccc2)NC(=O)C2CCNCC2)cc1 |  | inconclusive: 16.4 µM [activator, single point]
Cc1ccc(-c2cc(-c3ccccc3)nc(NN)n2)cc1 |  | inconclusive: 16.4 µM [inhibitor, partial curve, poor fit]
CCOc1ccc(-n2c(SCC(=O)Nc3ccccc3CC)nc3n[nH]c(C)c3c2=N)cc1 |  | inconclusive: 25.9 µM [inhibitor, single point]
COc1cc(-c2noc(C)c2C#CC2(N)CCCCC2)cc(OC)c1OC |  | inconclusive: 5.17 µM [inhibitor, single point]
O=[N+]([O-])c1cc(C2Nc3cccc4cccc(c34)N2)ccc1Cl | inactive: -9.16% | 
COc1ccc(C(CNC(=O)c2cccc(S(=O)(=O)Nc3ccccc3Cl)c2)N2CCOCC2)cc1 (stereo unspecified) |  | inconclusive: 20.6 µM [inhibitor, partial curve]
COc1cccc(C(=O)Nc2ccc(N3CCN(C(=O)c4ccco4)CC3)cc2)c1 |  | active: 13 µM
CCC(=O)Nc1ccc(C(=O)OCc2ccccc2)cc1 |  | inconclusive: 25.9 µM [activator, partial curve, poor fit]
Cc1csc(SCC(=O)NC(=O)NCc2ccccc2)n1 | inactive: 3.56% | 
COc1ccc(-c2csc(NC(=O)COC(=O)C3=COCCO3)n2)cc1 |  | inconclusive: 11.6 µM [activator, partial curve]
CCCCOCCCNC(=S)Nc1ccc(S(=O)(=O)N2CCOCC2)cc1 |  | inconclusive: 16.4 µM [inhibitor, single point]
O=C(c1ccc2c(=O)n(Cc3ccc(Cl)cc3)c(=S)[nH]c2c1)N1CCOCC1 |  | inconclusive: 18.3 µM [activator, single point]
COc1ccc(OCCn2cc(/C=N/NC(=O)c3ccncc3)c3ccccc32)cc1 |  | inconclusive: 23.1 µM [inhibitor, single point]
Cc1ccc(NC(=O)CSc2nsc(SCC(=O)Nc3ccc(C)cc3C)c2C#N)c(C)c1 | inactive: 6.74% | 
COc1ccc(OC)c(NC(=O)c2ccc(-c3csc(C)n3)cc2)c1 |  | inconclusive: 16.4 µM [activator, single point]
CCOc1ncccc1C(=O)NCCc1c[nH]c2ccccc12 |  | inconclusive: 16.4 µM [inhibitor, single point]
CSc1nc2ccc(NS(=O)(=O)c3ccc4c(c3)OCCO4)cc2s1 |  | inconclusive: 13 µM [inhibitor, partial curve, poor fit]
COc1cc(O)c(C(=O)/C=C/c2ccccc2)c(OC)c1 |  | inconclusive: 20.6 µM [activator, single point]
